From patent publication US20160209428A1, “DIAGNOSTIC AND PREDICTIVE METABOLITE PATTERNS FOR DISORDERS AFFECTING THE BRAIN AND NERVOUS SYSTEM” (THE REGENTS OF THE UNIVERSITY OF CALIFORNIA, priority 2013, published 2016) come the findings set out here.

This series deals with Fragile X (Fmr1) knockout mouse. Put plainly: Plasma metabolomics after weekly suramin or saline, Fragile X model. The class given is in vivo. Conditions: KO-Suramin vs KO-Saline, Fmr1 knockout mice, PLSDA. As for the experimental part: Samples were analyzed on an AB SCIEX QTRAP 5500 triple quadrupole mass spectrometer equipped with a Turbo V electrospray ionization (ESI) source, Shimadzu LC-20A UHPLC system, and a PAL CTC autosampler (AB ACIEX, Framingham, Mass., USA). […] Plasma was separated by centrifugation at 600 g×5 minutes at 20° C. within one hour of collection. Fresh lithium-heparin plasma was transferred to labeled tubes for storage at −80° C. for analysis. Typically 45 μl of plasma was thawed on ice and transferred to a 1.7 ml Eppendorf tube. Two and one-half (2.5) μl of a cocktail containing 35 commercial stable isotope internal standards, and 2.5 μl of 310 stable isotope internal standards that were custom-synthesized in E. coli and S. cerevisiae by metabolic labeling with ^13C-glucose and ^13C-bicarbonate, were added, mixed, and incubated for 10 min at room temperature to permit small molecules and vitamins in the internal standards to associate with plasma binding proteins. Macromolecules (protein, DNA, RNA, etc.) were precipitated by extraction with 4 volumes (200 μl) of cold (−20° C.), acetonitrile:methanol (50:50) (LCMS grade, Cat#LC015-2.5 and GC230-4, Burdick & Jackson, Honeywell), vortexed vigorously, and incubated on crushed ice for 10 min, then removed by centrifugation at 16,000 g×10 min at 4° C. The supernatants containing the extracted metabolites and internal standards in the resulting 40:40:20 solvent mix of acetonitrile:methanol:water were transferred to labeled cryotubes and stored at −80° C. for LC-MS/MS (liquid chromatography-tandem mass spectrometry) analysis.
LC-MS/MS analysis was performed by multiple reaction monitoring (MRM) under Analyst v1.6.1 (AB SCIEX, Framingham, Mass., USA) software control in both negative and positive mode with rapid polarity switching (50 ms). Nitrogen was used for curtain gas (set to 30), collision gas (set to high), ion source gas 1 and 2 (set to 35). The source temperature was 500° C. Spray voltage was set to −4500 V in negative mode and 5500 V in positive mode. The values for Q1 and Q3 mass-to-charge ratios (m/z), declustering potential (DP), entrance potential (EP), collision energy (CE), and collision cell exit potential (CXP) were determined and optimized for each MRM for each metabolite. Ten microliters of extract was injected by PAL CTC autosampler into a 250 mm×2 mm, 5 μm Luna NH2 aminopropyl HPLC column (Phenomenex, Torrance, Calif., USA) held at 25° C. for chromatographic separation. […] The flow rate was 300 μl/min. All the samples were kept at 4° C. during analysis. The chromatographic peaks were identified using MultiQuant (v3.0, AB SCIEX), confirmed by manual inspection, and the peak areas integrated. The median of the peak area of stable isotope internal standards was calculated and used for the normalization of metabolites concentration across the samples and batches. Prior to multivariate and univariate analysis, the data were log-transformed.
A rendering of mammalian intermediary metabolism was constructed in Cytoscape v 3.1.1 (see, e.g., [http://]www.cytoscape.org/). […] Nodes in the Cytoscape network represent metabolites within the pathways and have been colored according to the Z-score. The Z-score was computed as the arithmetic difference between the mean concentration of each metabolite in the KO-Sur treatment group and the KO-Sal control group, divided by the standard deviation in the controls. Node colors were arranged on a red-green color scale with green representing −2.00 Z-score, red representing +2.00 Z-score, and with a zero (0) Z-score represented as white.
Group means and standard error of the means (SEM) are reported. Behavioral data were analyzed by two-way ANOVA and one-way ANOVAs (GraphPad Prism 5.0d, GraphPad Software Inc., La Jolla, Calif., USA, or Stata/SE v12.1, StataCorp, College Station, Tex., USA). Pair-wise post hoc testing was performed by the method of Tukey or Newman-Keuls. Significance was set at p<0.05.

Consider `Nc1nc2c(ncn2[C@@H]2O[C@H](CO)[C@@H](O)[C@H]2O)c(=O)[nH]1` [Guanosine], for which the “VIP Score, metabolites changed by antipurinergic therapy” value (“VIP Score, metabolites changed” for short) turned out to be 4.1962.

`Cc1cccc(CC(=O)O)c1` [3-methylphenylacetic acid]: the “VIP Score, metabolites changed” value stood at 1.6055.

Turning to `C[C@]12CC[C@H](OS(=O)(=O)O)CC1=CC[C@@H]1[C@@H]2CC[C@]2(C)C(=O)CC[C@@H]12` [Dehydroisoandrosterone 3-sulfate], the “VIP Score, metabolites changed” value turned out to be 1.5627.

For PE (38:5), the “VIP Score, metabolites changed” value was 1.5338.

For `CCCCCCCCCCCC(=O)O[C@H](CC(=O)[O-])C[N+](C)(C)C` [Dodecanoylcarnitine], the “VIP Score, metabolites changed” value amounted to 1.6983.

For `N[C@@H](CCC(=O)N[C@@H](CSSC[C@H](N)C(=O)O)C(=O)NCC(=O)O)C(=O)O` [Cysteineglutathione disulfide], the “VIP Score, metabolites changed” value came out at 2.2284.

Take `C[C@H](CCC(=O)O)[C@H]1CC[C@H]2[C@@H]3[C@H](O)C[C@@H]4C[C@H](O)CC[C@]4(C)[C@H]3C[C@H](O)[C@]12C` [Cholic acid]: the “VIP Score, metabolites changed” value turned out to be 1.8062.

Turning to Trihexosylceramide 18:1/16:0, the “VIP Score, metabolites changed” value amounted to 2.2984.

Turning to PC (18:0/20:3), the “VIP Score, metabolites changed” value is given as 2.087.

For `CCCCCC(O)C=CC1OC(=O)CC(O)C1CC=CCCCC(=O)O` (centres unmarked) [11-Dehydro-thromboxane B2], the “VIP Score, metabolites changed” value worked out at 3.0285.

With `CCCCCCC=CCCCCCCCC(=O)OC(CC(=O)[O-])C[N+](C)(C)C` (centres unmarked) [9-Hexadecenoylcarnitine], the “VIP Score, metabolites changed” value amounted to 1.5637.

Regarding `O=CCC=O` [Malondialdehyde], the “VIP Score, metabolites changed” value is given as 2.0928.

Consider `CCCCC/C=C\C[C@@H](O)/C=C/C=C/C=C\[C@@H](O)CCCC(=O)O` [LTB4], for which the “VIP Score, metabolites changed” value worked out at 4.7929.

For the compound `CCCCC/C=C\C=C\[C@H](O)C/C=C\C/C=C\CCCC(=O)O` [11(R)-HETE], the “VIP Score, metabolites changed” value is on record as 1.5384.

Turning to `CC(C)CCC[C@@H](C)[C@H]1CC[C@H]2[C@@H]3CC[C@H]4C[C@@H](O)CC[C@]4(C)[C@H]3CC[C@]12C` [5-alpha-Cholestanol], the “VIP Score, metabolites changed” value is on record as 1.6542.

Regarding Bismonoacylphospholipid (18:1/18:0), the “VIP Score, metabolites changed” value was found to be 1.6108.

Bismonoacylphospholipid (18:1/18:1): the “VIP Score, metabolites changed” value is 2.0984.

Turning to Dihexosylceramide (18:1/20:0), the “VIP Score, metabolites changed” value was 2.5094.

Consider Ceramide (d18:1/20:1), for which the “VIP Score, metabolites changed” value was determined as 1.5607.

As for Trihexosylceramide 18:1/22:0, the “VIP Score, metabolites changed” value stood at 2.1755.

Regarding `C[n+]1cccc(C(N)=O)c1` [1-Methylnicotinamide], the “VIP Score, metabolites changed” value is recorded as 3.4567.

Turning to Trihexosylceramide 18:1/24:0, the “VIP Score, metabolites changed” value is given as 1.8222.

In the case of Trihexosylceramide 18:1/24:1, the “VIP Score, metabolites changed” value was 1.9105.

In the case of `O=C(O)C(O)Cc1ccc(O)cc1` (centres unmarked) [4-hydroxyphenyllactic acid], the “VIP Score, metabolites changed” value is on record as 2.9524.

In the case of `C[N+](C)(C)C[C@@H](CC(=O)[O-])OC(=O)CCCCCC(=O)O` [Pimelylcarnitine], the “VIP Score, metabolites changed” value amounted to 1.7778.

Regarding `CCCCCCCCCCCCC/C=C/[C@@H](O)[C@H](CO)NC(=O)CCCCCCCCCCCCCCCCCCCCCCCCC` [Ceramide (d18:1/26:0)], the “VIP Score, metabolites changed” value is on record as 1.7619.

Take `CCCCCC1OC1CC=CCC=CCC=CCCCC(=O)O` (centres unmarked) [14,15-epoxy-5,8,11-eicosatrienoic acid]: the “VIP Score, metabolites changed” value is reported as 1.9964.

For the compound `C=CCCCCCCCC(=O)OC(CC(=O)[O-])C[N+](C)(C)C` (centres unmarked) [9-Decenoylcarnitine], the “VIP Score, metabolites changed” value worked out at 1.6702.

Regarding `CCCCC/C=C\C/C=C\CC1OC1C/C=C\CCCC(=O)O` (centres unmarked) [8,9-Epoxyeicosatrienoic acid], the “VIP Score, metabolites changed” value is given as 1.8643.

On to `CCCCCCCCCCCCCC(=O)O[C@H](CC(=O)[O-])C[N+](C)(C)C` [Myristoylcarnitine], for which the “VIP Score, metabolites changed” value is 1.8395.

In the case of `Cc1cn([C@H]2C[C@H](O)[C@@H](COP(=O)(O)OP(=O)(O)OC3O[C@H](CO)[C@@H](O)[C@H](O)[C@H]3O)O2)c(=O)[nH]c1=O` (stereo partly drawn) [dTDP-D-glucose], the “VIP Score, metabolites changed” value is recorded as 2.1762.

Take `O=C(O)C(COP(=O)(O)O)OP(=O)(O)O` (centres unmarked) [2,3-Diphosphoglyceric acid]: the “VIP Score, metabolites changed” value came out at 2.6413.

In the case of `Cc1ncc(CO)c(CN)c1O` [Pyridoxamine], the “VIP Score, metabolites changed” value amounted to 1.5335.

In the case of Cardiolipin (24:1/24:1/24:1/14:1), the “VIP Score, metabolites changed” value was 1.9754.

As to Ceramide (d18:1/24:0 OH), the “VIP Score, metabolites changed” value amounted to 2.6743.

Consider `CC(C)C[C@H](O)C(=O)O` [Hydroxyisocaproic acid], for which the “VIP Score, metabolites changed” value turned out to be 1.6696.

For the compound Dihexosylceramide (18:1/24:1), the “VIP Score, metabolites changed” value is 2.7087.

On to `CCCCCCCC(=O)O[C@H](CC(=O)O)C[N+](C)(C)C` [Octanoylcarnitine], for which the “VIP Score, metabolites changed” value worked out at 1.7888.

Consider `N[C@@H](CSSC[C@H](N)C(=O)O)C(=O)O` [L-cystine], for which the “VIP Score, metabolites changed” value came out at 2.8156.

As to `N[C@@H](CCS(=O)(=O)O)C(=O)O` [L-Homocysteic acid], the “VIP Score, metabolites changed” value is given as 1.6739.

Regarding `Nc1ccn([C@@H]2O[C@H](CO)[C@@H](O)[C@H]2O)c(=O)n1` [Cytidine], the “VIP Score, metabolites changed” value is listed as 1.5738.

In the case of `O=C(OP(=O)(O)O)C(O)COP(=O)(O)O` (centres unmarked) [Glyceric acid 1,3-biphosphate], the “VIP Score, metabolites changed” value was determined as 1.6112.

As to `OC[C@H]1O[C@@H](n2cnc3c(O)ncnc32)[C@H](O)[C@@H]1O` [Inosine], the “VIP Score, metabolites changed” value is 6.3985.

Regarding `CCCCC/C=C\CC(O)C(O)C/C=C\C/C=C\CCCC(=O)O` (centres unmarked) [11,12-DiHETrE], the “VIP Score, metabolites changed” value stood at 1.5284.

On to Ceramide (d18:1/16:0 OH), for which the “VIP Score, metabolites changed” value is 2.4973.

`CCCCCC(=O)OC(CC(=O)O)C[N+](C)(C)C.[Cl-]` (centres unmarked) [Hexanoylcarnitine]: the “VIP Score, metabolites changed” value is recorded as 2.766.

As to `O=C(O)CC(=O)C(=O)O` [Oxaloacetic acid], the “VIP Score, metabolites changed” value was found to be 1.5682.

For `CCCCCCCCC=CC=CCC(=O)OC(CC(=O)[O-])C[N+](C)(C)C` (centres unmarked) [3,5-Tetradecadiencarnitine], the “VIP Score, metabolites changed” value is reported as 2.0594.

Turning to PI (26:1), the “VIP Score, metabolites changed” value was determined as 2.5143.

On to `O=c1[nH]cnc2nc[nH]c12` [Hypoxanthine], for which the “VIP Score, metabolites changed” value is 6.9083.

With `O=C(CO)[C@@H](O)[C@H](O)[C@H](O)[C@H](O)COP(=O)(O)O` [Sedoheptulose 7-phosphate], the “VIP Score, metabolites changed” value is recorded as 1.5159.

With `CCCCCCCCCCCCCCCC(=O)OCC(COP(=O)(O)OCC(O)CO)OC(=O)CCCCCCCCCCCCCCC` (centres unmarked) [PG(16:0/16:0)], the “VIP Score, metabolites changed” value came to 1.7575.

In the case of Ceramide (d18:1/24:1), the “VIP Score, metabolites changed” value came to 2.6984.
